Data on 21 compounds can be found in patent US6458194B1, “Azo dye compound having 1,2,4-triazole as the azo component” (Fuji Photo Film Co., Ltd., priority 1999, dated 2002).

Data set [1] in a line: Thermal transfer printing with dye donating materials: hue, maximum density. Also noted: key to Hue: ∘: bright yellow hue; Δ: slightly poor in yellow hue; X: poor in yellow hue. The conditions noted are these: for Hue: thermal transfer image from dye donating materials 2-1 to 2-19; for Maximum Density: thermal transfer image, thermal head 0.25 W/dot. From the text: A polyethylene terephthalate film of 6 μm thick (product of Teijin, Ltd.), the rear surface of which having been subjected to heat-resistant smoothing finish, was used as a support, and a coating composition for forming a thermal transfer dye donating layer having a formulation shown below was coated by wire-bar coating on the front surface of the support so as to attain a dry thickness of 1.5 μm, thereby to fabricate a thermal transfer dye donating material (2-1).
Thermal transfer dye donating materials (2-2) to (2-19) were also fabricated similarly to the foregoing process except that using other compound listed in Table 1 in place of using Compound 5.
A synthetic paper of 150 μm thick (YUPO-FPG-150, product of Oji-Yuka Synthetic Paper Co., Ltd.) was used as a support, and a coating composition having a formulation shown below was coated thereon by wire-bar coating so as to attain a dry thickness of 8 μm, thereby to fabricate a thermal transfer image accepting material. The drying was effected by preliminary drying with a dryer, and the successive drying in an oven at 100° C. for 30 min. Coating Composition for Forming Thermal Transfer Image Accepting
Thus obtained thermal transfer dye donating materials (2-1) to (2-19) were individually stacked with the thermal transfer image accepting material so that the dye donating layer of the former and the image accepting layer of the latter come into contact. Printing was then performed from the support side of the thermal transfer dye donating material using a thermal head with an output power of 0.25 W/dot, pulse width of 0.15 to 15 msec and dot density of 6 dot/mm, thereby to transfer the yellow to red dye and to form an image in the image accepting layer of the image accepting material. […] Individual materials were evaluated for the hue, maximum density and suitability in ink production.
Δ slightly poor in yellow hue; and […]

Data set [2] is described as follows: Evaluation of ink sheets (5-1) to (5-12). Details: key: ∘: bright yellow hue; Δ: slightly poor in yellow hue; X: poor in yellow hue. The conditions noted are these: ink sheet. On the procedure:
A transparent polyester-base polymer film of 150 μm thick was used as a support, and a coating composition (1) for forming an ink sheet having a formulation shown below was coated by wire-bar coating on the surface of the support so as to attain a dry thickness of 20 μm, thereby to fabricate an ink sheet (5-1). The drying was effected by preliminary drying with a dryer, and the successive drying in an oven at 100° C. for 30 minutes.
Ink sheets (5-1) to (5-12) were also produced similarly to the ink sheet (5-1) except that using an equal weight of other compounds (listed in Table 5) in place of Compound 1. The ink sheets (5-1) to (5-12) were then evaluated as in Example 2.

The nature of data set [3]: Evaluation of filters (6-1) to (6-12): hue and surface property. Also noted: key to Hue: ∘: bright yellow hue; Δ: slightly poor in yellow hue; X: poor in yellow hue; key to Surface property of filter: ∘: no crystal nor agglomeration of the dye observed under microscope; Δ: a slight crystal or agglomeration of the dye observed under microscope, while being not visible in visual inspection; X: crystal or agglomeration of the dye observed in visual inspection. Particulars: for Hue: filter; for Surface property of filter: spin coated on glass plate. From the text: A glass plate of 3 mm thick was used as a support, and a coating composition having a formulation shown below was coated by spin coating on the surface of the support so as to attain a dry thickness of 10 μm, thereby to fabricate a filter (6-1). The filter was preliminarily dried with a dryer, and was then allowed to stand at the room temperature for 2 days for thorough drying.
Filters (6-1) to (6-12) were also fabricated similarly to the filter (6-1) except that using an equal weight of other compounds (listed in Table 6) in place of Compound 1. The filters (6-1) to (6-12) were then evaluated for the hue (as in Example 2) and the surface property.
Surface Property of the Filter.
∘ no crystal nor agglomeration of the dye observed under microscope;
Δ a slight crystal or agglomeration of the dye observed under microscope, while being not visible in visual inspection; and
X crystal or agglomeration of the dye observed in visual inspection.

Data set [4] can be described thus: Evaluation of inks (4-1) to (4-12). Details: key: ∘: bright yellow hue; Δ: slightly poor in yellow hue; X: poor in yellow hue. Particulars: ink. The procedure: The composition having the formulation shown below was solubilized under stirring at 50° C. for 30 minutes, and then gradually ed to obtain an ink (4-1).
Inks (4-2) to (4-12) were also produced similarly to the ink (4-1) except that using an equal weight of other compounds (listed in Table 4) in place of Compound 1.
Inks (4-1) to (4-12) were evaluated as in Example 2.

Data set [5] can be described thus: Image transfer onto image accepting materials with or without dye fixer: image density. From the text: A stacked synthetic paper of 150 μm thick was used as a support, and a coating composition (1) for forming an image accepting layer having a formulation shown below was coated by wire-bar coating on the surface of the support so as to attain a dry thickness of 5 μm, thereby to fabricate a thermal transfer image accepting material (1) (simply referred as to “image accepting material, hereinafter). The drying was effected by preliminary drying with a dryer, and the successive drying in an oven at 80° C. for 1 hour.
Image accepting materials (2) to (4) were also fabricated similarly to the foregoing process except that individually using dye fixers and other binder resins listed in Table 2 in place of dye fixer P-24 and the binder for image accepting material (1).
Comparative image accepting material (A) was also fabricated using a composition similar to that used for the image accepting material (2) of Example 3 except that containing no dye fixer.
Image transfer was then performed using the image accepting materials (1) to (5) and (A), and the thermal transfer dye donating materials (2-1) to (2-5) fabricated in Example 2.

Take `Cc1nn2nc(C(C)C)c(N=Nc3nc(-c4ccccc4)ns3)c2[nH]1` [Compound 21]: in data set [1], the Hue result is recorded as “∘” and the “Maximum Density” value was 2.1.

Turning to `CSc1nsc(N=Nc2c(C(C)(C)C)nn3nc(C(C)CN4C(=O)c5ccccc5C4=O)[nH]c23)n1` (stereo not drawn) [Compound 15], in data set [1], the Hue result was “∘” and the “Maximum Density” value is 1.8.

Regarding `CCOc1nn2nc(C)[nH]c2c1N=Nc1nc(-c2ccc(C(F)(F)F)cc2)ns1` [Compound 11], in data set [1], the Hue entry is recorded as “∘” and the “Maximum Density” value is given as 2.0.

As for `CCS(=O)(=O)c1nsc(N=Nc2c(-c3ccccc3Cl)nn3nc(C(C)C)[nH]c23)n1` [Compound 18], in data set [1], the Hue entry was “∘” and the “Maximum Density” value came to 1.9.

Consider `CSc1nsc(N=Nc2c(C(C)(C)C)nn3nc(C(C)CN4C(=O)C=CC4=O)[nH]c23)n1` (stereo not drawn) [Compound 25], for which, in data set [1], the Hue entry was “∘” and the “Maximum Density” value came to 2.0.

`CCSc1nsc(N=Nc2c(C)nn3nc(C)[nH]c23)n1` [Compound 3]: the Hue result in data set [2], in data set [3] and in data set [4] was “∘” each time. Besides, the “Surface property of filter” value in data set [3] is on record as “∘”.

As for `Cc1nn2nc(C(C)(C)C)c(N=Nc3nc(-c4ccccc4)ns3)c2[nH]1` [Compound 10], in data set [1], the Hue entry is recorded as “∘” and the “Maximum Density” value is on record as 2.1.

In data set [5] (image accepting material (3), dye fixer P-22, dye donating material 2-3), `Cc1nn2nc(C(C)(C)C)c(N=Nc3nc(-c4cccc([N+](=O)[O-])c4)ns3)c2[nH]1` [Compound 12] showed a Density of 1.9.

Take `CSc1nsc(N=Nc2c(-c3ccccc3)nn3nc(C(C)C)[nH]c23)n1` [Compound 7]: the Hue result in data set [2], in data set [1], in data set [3] and in data set [4] was “∘” each time. The “Maximum Density” value in data set [1] is 2.0. In data set [3], the “Surface property of filter” value is given as “∘”.

As to `CSc1nsc(N=Nc2c(C(C)(C)C)nn3nc(C)[nH]c23)n1` [Compound 2], the Hue entry in data set [2], in data set [3] and in data set [4] was “∘” each time. The “Surface property of filter” value in data set [3] is given as “∘”.

`CCSc1nsc(N=Nc2c(-c3ccccc3Cl)nn3nc(-c4cccc([N+](=O)[O-])c4)[nH]c23)n1` [Compound 13] showed a Density in data set [5] (image accepting material (4), dye fixer P-23, dye donating material 2-4) of 2.0.

Regarding `CSc1nsc(N=Nc2c(C)nn3nc(C)[nH]c23)n1` [Compound 1], the Hue result in data set [2], in data set [3] and in data set [4] was “∘” each time. The “Surface property of filter” value in data set [3] was “∘”.

For the compound `CCCc1nn2nc(C(C)(C)C)c(N=Nc3nc(SC)ns3)c2[nH]1` [Compound 5], the Hue result in data set [2], in data set [1], in data set [3] and in data set [4] was “∘” each time. Further, the “Maximum Density” value in data set [1] was found to be 2.1. In addition, the “Surface property of filter” value in data set [3] is on record as “∘”. Moreover, the Density in data set [5] (comparative image accepting material (A), no dye fixer, dye donating material 2-1) turned out to be 1.8; in data set [5] (image accepting material (1), dye fixer P-24, dye donating material 2-1), 2.3.

`CC(C)c1nn2nc(-c3ccccc3Cl)c(N=Nc3nc(-c4ccccc4)ns3)c2[nH]1` [Compound 9]: the Hue entry in data set [2], in data set [1], in data set [3] and in data set [4] was “∘” each time. Besides, the “Maximum Density” value in data set [1] is 2.0. Besides, the “Surface property of filter” value in data set [3] was “∘”.

On to `CCS(=O)(=O)c1nsc(N=Nc2c(C(C)(C)C)nn3nc(C(C)C)[nH]c23)n1` [Compound 32], for which the Hue result in data set [2], in data set [1], in data set [3] and in data set [4] was “∘” in each case. For the same compound, in data set [1], the “Maximum Density” value came out at 2.0. In data set [3], the “Surface property of filter” value was “∘”.

Regarding `CCSc1nsc(N=Nc2c(C)nn3c(C(C)(C)C)n[nH]c23)n1` [Comparative Compound “a”, reference compound], in data set [1], the Hue entry is reported as “Δ” and the “Maximum Density” value came out at 1.5.

As for `CSc1nsc(N=Nc2c(C(C)(C)C)nn3nc(C(C)C)[nH]c23)n1` [Compound 4], the Hue result in data set [2], in data set [1], in data set [3] and in data set [4] was “∘” each time. For the same compound, the “Maximum Density” value in data set [1] turned out to be 2.0. The “Surface property of filter” value in data set [3] is “∘”.

For `CCOC(=O)C(CC)Sc1nsc(N=Nc2c(C)nn3nc(C)[nH]c23)n1` (stereo not drawn) [Compound 6], the Density in data set [5] (image accepting material (2), dye fixer P-3, dye donating material 2-2) amounted to 2.2.

Turning to `CCSc1nsc(N=Nc2c(C(C)(C)C)nn3nc(C(C)C)[nH]c23)n1` [Compound 31], the Hue entry in data set [2], in data set [1], in data set [3] and in data set [4] was “∘” in each case. Also, the “Maximum Density” value in data set [1] is 2.0. Moreover, in data set [3], the “Surface property of filter” value is “∘”.

`COc1ccc(-c2nsc(N=Nc3c(C(C)(C)C)nn4nc(C(C)C)[nH]c34)n2)cc1` [Compound 20]: in data set [1], the Hue result is “∘” and the “Maximum Density” value was 1.9. In data set [5] (image accepting material (5), dye fixer P-24, dye donating material 2-5), this compound yielded a Density of 2.1.

For the compound `CCSc1nsc(/N=N/c2c(-c3ccccc3Cl)nn3nc(C(C)C)[nH]c23)n1` [Compound 34], in data set [1], the Hue result is listed as “∘” and the “Maximum Density” value was 2.0.
